Here are results for 63 compounds from PubChem BioAssay AID2685 (National Center for Advancing Translational Sciences (NCATS), 2010).

The nature of this assay: qHTS Assay for Lipid Storage Modulators in Drosophila S3 Cells.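 As to cell number change: cells counted by Cell Tracker Red CMTPX staining in the red channel.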 The note with it: BODIPY lipid droplet fluorescence, 18-24 h; for cell number change: measured here: cell count max response, cells fed with added oleic acid. A digest of the protocol:
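Laser-scanning cytometry quantifies lipid droplet accumulation (500–530 nm total intensity; droplet/cell object ratio) in oleic acid-fed (400 uM added) Drosophila S3 cells treated with a concentration series. 20 uM Triacsin C defined 100% inhibition.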

[1] abbreviates: measured here: cell number channel AC50, cells fed with added oleic acid.
Setting [2] is: measured here: lipid fluorescence (Fed channel) AC50, cells fed with added oleic acid.

This is one part of the list. These are further read-outs of the screen, such as a control signal, another cell line or another target. No call is given for them. Most of these compounds were active or inconclusive in the main read-out, so they are no random draw. Words in brackets tell the shape of the fitted curve; partial curves, single points and poor fits give uncertain potencies.

The term AC50 denotes the concentration giving half of the maximal activity seen. Read a high AC50 as activity only at high concentration. `Cc1cc(C)c(C(=O)COC(=O)C2CCN(c3ccc(C(F)(F)F)cn3)CC2)cc1C`: the cell number change was 37.9%. The AC50 under setting [1] was 18.4 µM [rising, single point].
Turning to `COc1cccc(CCc2nnc(CCC(=O)NC(C)c3c(C)nn(C)c3C)o2)c1` (stereo unspecified), the cell number change came out at 11.7%. For the same compound, the AC50 under setting [2] was 0.651 µM [falling, full curve].
Take `CC(=O)NCCc1nc2ccccc2n1CCOc1ccccc1C`: the cell number change is 39%. For the same compound, the concentration at half-maximal activity (AC50) under setting [2] is 29.1 µM [rising, single point].
As for `Cc1ccc(NC2CCCN(C(=O)c3ccoc3C)C2)cc1C` (stereo unspecified), the cell number change is 14.2%. In addition, the AC50 under setting [2] was 8.2 µM [rising, partial curve].
On to `CC1=Nc2cc(C(=O)NCc3ccco3)ccc2Sc2ccc(C)cc21`, for which the cell number change amounted to 6.97%. Further, the AC50 under setting [2] is 0.92 µM [falling, full curve, poor fit].
In the case of `O=C1CCCN1c1ccc(C(=O)N(Cc2nnc(-c3ccc(Cl)cc3)o2)C2CC2)cc1`, the cell number change worked out at 36%. For the same compound, under setting [1], the AC50 was 5.8 µM [rising, partial curve, poor fit].
`Cc1[nH]n(C(N)=S)c(=O)c1C(c1ccccc1)C(C#N)C#N` (stereo unspecified): the cell number change was found to be 83.2%. In addition, under setting [1], the AC50 is 18.4 µM [rising, single point].
On to `CCOC(=O)N1CCN(S(=O)(=O)c2ccc(OC)c(Br)c2)CC1`, for which the cell number change was 14.2%. In addition, the AC50 under setting [2] is 6.51 µM [rising, single point].
In the case of `CCOCCOC(=O)C1=C(C)N(C)C(=O)NC1c1ccccc1F` (stereo unspecified), the cell number change was -9.89%. For the same compound, the concentration at half-maximal activity (AC50) under setting [2] is 29.1 µM [rising, single point].
For the compound `COc1ccc(NC(=O)CN(C)C(=O)Cc2c(C)nc3ccccc3c2C)cc1`, the cell number change is 65.1%. Further, under setting [1], the half-maximal activity concentration (AC50) is 23.1 µM [rising, partial curve].
As to `Oc1ccc(C23CCCC2C2(CCCC2)c2ccc(O)cc2O3)c(O)c1` (stereo unspecified), the cell number change was -78%. The AC50 under setting [1] was 29.1 µM [falling, single point]. Also, the AC50 under setting [2] is 0.259 µM [rising, full curve, poor fit].
For the compound `CCOc1ccc(-c2[nH]ncc2Oc2ccccc2OC)c(O)c1`, the cell number change is -71%. The AC50 under setting [1] was 29.1 µM [falling, single point]. Further, the AC50 under setting [2] was 29.1 µM [falling, single point].
As to `COc1ccc(-c2cn[nH]c2N)c(OC)c1`, under setting [1], the half-maximal activity concentration (AC50) is 3.26 µM [rising, single point].
Turning to `CCc1ccc(-c2cc(C(F)(F)F)n3nc(C(=O)Nc4cnn(Cc5ccc(C)cc5)c4)cc3n2)s1`, the cell number change was -7.68%.
For the compound `Cc1ccc(/C=C(\CCC(=O)O)c2nc3ccccc3s2)cc1[N+](=O)[O-]`, the cell number change is -50%. In addition, under setting [1], the concentration at half-maximal activity (AC50) was 1.03 µM [falling, full curve, poor fit]. Further, the concentration at half-maximal activity (AC50) under setting [2] was 4.11 µM [rising, partial curve, poor fit].
For the compound `Cc1nn2c(N3CCOCC3)cc(C(C)C)nc2c1-c1ccccc1`, the cell number change was found to be 13.9%. Further, under setting [2], the AC50 was 18.4 µM [falling, partial curve].
`CC(=O)c1c(C)cc(C)c(CSc2nnc(-c3ccco3)o2)c1C`: the cell number change was -5.95%.
For `CCn1nnc(NC(=O)c2cccnc2)n1`, the cell number change is -22.8%. Besides, the AC50 under setting [1] is 0.731 µM [falling, full curve, poor fit]. For the same compound, the AC50 under setting [2] is 2.91 µM [falling, full curve].
With `CC(NC(=O)c1ccc(F)cc1)c1ccc(F)cc1` (stereo unspecified), the cell number change is -8.78%.
On the same count and under the same terms, next, `COc1ccccc1N(CN1C(=O)c2ccccc2C1=O)C(=O)c1cccnc1`: -19.5%.
In the case of `CCOC(=O)c1c[nH][nH]c1=O`, the cell number change was -0.23%.
Same read-out and setting: next, `CCOC(=O)N1CCN(C(=O)c2ccc(N3CCCC3=O)cc2)CC1`: -34.1%.
Consider `O=C(NCc1ccccc1)C1=C[C@H](C2CC2)C[C@H](OCCCCO)O1`, for which the cell number change is 29.5%. The AC50 under setting [2] is 20.6 µM [rising, single point].
On to `COc1ccc(NC(=O)CCCn2c(=O)c3sccc3n(Cc3ccc(C)cc3)c2=O)cc1`, for which the cell number change is -26.4%. Further, under setting [2], the AC50 was 29.1 µM [falling, single point].
As to `NNC(=O)c1nnn(-c2nonc2N)c1CN1CCc2ccccc2C1`, the cell number change is 88.8%.
Turning to `Cc1cnc(NC(=O)c2ccc(-c3nc4ccccc4s3)o2)s1`, the cell number change is -1.6%. The half-maximal activity concentration (AC50) under setting [2] is 4.61 µM [rising, full curve, poor fit].
`O=C(Cc1cc(=O)[nH][nH]1)N/N=C/c1cccc2ccccc12`: the cell number change was 20.4%. Besides, under setting [2], the AC50 is 29.1 µM [rising, single point].
As for `CCc1nnc(NC(=O)c2ccc(OC)cc2OC)s1`, the cell number change was -2.57%. Moreover, the AC50 under setting [2] is 6.51 µM [rising, single point].
As for `Cc1[nH]c2ccccc2c1C(=O)CN1CCCC1`, the cell number change is -10.6%. Moreover, the AC50 under setting [2] was 32.6 µM [rising, single point].
As to `O=C(N/N=C1\CCCc2ccccc21)c1cccc([N+](=O)[O-])c1`, the cell number change is 49.2%. In addition, the AC50 under setting [1] was 2.91 µM [rising, full curve].
Regarding `CCn1c(SCc2nc(-c3ccc(Cl)cc3)no2)nnc1-c1ccco1`, the cell number change was -9.66%. In addition, under setting [2], the concentration at half-maximal activity (AC50) was 0.0082 µM [falling, full curve, poor fit].
For `CC(=O)Oc1cc2c(C(C)=O)coc2c2ccccc12`, the cell number change is -3.84%. In addition, under setting [2], the AC50 is 6.51 µM [falling, single point].
On to `O=C(c1cc2ccccc2oc1=O)N(Cc1ccco1)CC1CCCO1` (stereo unspecified), for which the cell number change was found to be 23.7%. The AC50 under setting [2] is 16.4 µM [rising, single point].
For the compound `COc1ccc(Cc2nnc(-c3ccc(F)cc3)o2)cc1OC`, the AC50 is 0.411 µM [rising, partial curve] under setting [1] and 1.03 µM [rising, partial curve] under setting [2].
`COc1ccc(C/C(C)=N\NC(=O)c2c[nH]c3ccccc23)cc1OC`: the cell number change is 44.9%. Besides, under setting [1], the AC50 is 18.4 µM [rising, single point]. For the same compound, under setting [2], the AC50 was 20.6 µM [rising, single point].
As for `Fc1ccc(NC(=S)NCc2ccc3c(c2)OCO3)cc1`, the AC50 under setting [2] is 2.91 µM [falling, single point].
For `CCn1c(=O)cc(SCC(=O)NCc2ccc(C)o2)c2ccccc21`, the AC50 is, setting by setting: under setting [1], 0.58 µM [falling, single point]; under setting [2], 0.58 µM [falling, single point].
For `Cc1ccc(C(c2nnnn2C2CCCC2)N2c3ccccc3CC2C)cc1` (stereo unspecified), the cell number change was -21.4%.
Consider `Cc1cc(C)cc(OCC(=O)N2N=C(C(F)(F)F)CC2(O)C(C)(C)C)c1` (stereo unspecified), for which the AC50 is 5.17 µM [falling, single point] under setting [1] and 7.31 µM [falling, partial curve, poor fit] under setting [2].
With `COc1ccc(CCNC(=O)CSc2nn(-c3ccccc3)c(=S)s2)cc1`, the half-maximal activity concentration (AC50) under setting [2] is 2.59 µM [rising, partial curve].
Turning to `Cc1ccc(C2=NN=C(NC(=O)C(F)(F)F)SC2)cc1`, the cell number change came to 9.7%. Moreover, under setting [2], the AC50 was 11.6 µM [rising, partial curve, poor fit].
Regarding `COc1ccc(CN2C(=NC(=O)C3CCCO3)SC3CS(=O)(=O)CC32)cc1` (stereo unspecified), the cell number change is -4.96%.
For `CC(=O)N1CCN(S(=O)(=O)c2cccc(C(=O)Nc3nccs3)c2)CC1`, the cell number change is -7.57%. In addition, the AC50 under setting [2] was 0.651 µM [falling, full curve].
For the compound `CCOC(=O)CCc1c(C)c2ccc(OC3CCCCC3=O)cc2oc1=O` (stereo unspecified), the cell number change is -39.8%. The concentration at half-maximal activity (AC50) under setting [1] is 14.6 µM [falling, partial curve]. Also, the AC50 under setting [2] is 18.4 µM [falling, partial curve].
With `CN(C)c1cc[n+](CC(=O)c2cccs2)cc1`, the cell number change was -22.8%. The AC50 under setting [2] is 0.731 µM [falling, partial curve, poor fit].
As for `COc1ccccc1OCCNC(=O)c1ccc2c(c1)OCCO2`, under setting [1], the half-maximal activity concentration (AC50) was 1.16 µM [falling, full curve].
Take `Cc1ccccc1NC(=O)C1C2C=CC(C3CC23)C1C(=O)O` (stereo unspecified): the cell number change turned out to be 29.8%. Besides, under setting [2], the concentration at half-maximal activity (AC50) is 29.1 µM [rising, single point].
As to `COc1ccc(CCNC(=O)C2CCC(CNc3c(N4CCCC4)c(=O)c3=O)CC2)cc1OC` (stereo unspecified), the cell number change is -2.02%.
Consider `O=C(COC(=O)CCC1CCCCC1)Nc1ccc(OC(F)F)cc1`, for which the cell number change was -73.7%. Besides, the AC50 under setting [1] is 20.6 µM [falling, single point].
With `Cc1ccc(CSCC(=O)Nc2c(C)n(C)n(-c3ccccc3)c2=O)cc1`, the AC50 under setting [1] is 0.731 µM [rising, full curve, poor fit].
For the compound `Cc1cccc(NC(=S)NC(=O)c2ccc(Br)o2)c1C`, the cell number change stood at 106%. Besides, the concentration at half-maximal activity (AC50) under setting [1] was 18.4 µM [rising, partial curve]. Besides, the concentration at half-maximal activity (AC50) under setting [2] is 20.6 µM [rising, partial curve].
For `COc1cc(/C=C2/C(=O)ON=C2c2ccccc2)ccc1O`, the cell number change was 1.93%.
`CCOc1ccc(C(C)NC(=O)CN2C(=O)NC3(CCCCC3)C2=O)cc1OCC` (stereo unspecified): the cell number change stood at 7.87%. Also, under setting [2], the AC50 was 4.11 µM [falling, single point].
For the compound `CC(=O)Nc1ccc(S(=O)(=O)Nc2nc(C)cc(-n3nc(C)cc3C)n2)cc1`, the cell number change was 16.3%.
For `Cc1cc(C)nc(NC(=O)CSc2ncccn2)n1`, the cell number change came out at 10.6%. Moreover, the AC50 under setting [2] is 1.64 µM [falling, partial curve, poor fit].
For `Cn1c(SCC(=O)c2c(N)n(C)c(=O)n(C)c2=O)nnc1-c1ccccc1`, the cell number change was 38%. For the same compound, the concentration at half-maximal activity (AC50) under setting [1] was 32.6 µM [rising, single point]. Moreover, the half-maximal activity concentration (AC50) under setting [2] was 29.1 µM [rising, single point].
For `O=[N+]([O-])c1ccc(N2CCN(S(=O)(=O)c3ccccc3)CC2)c2cccnc12`, the cell number change was found to be 5.89%. In addition, the AC50 under setting [2] was 2.59 µM [rising, single point].
For `Cc1cccc(N2CCN(C(=O)C3CCN(S(=O)(=O)c4cccnc4)CC3)CC2)c1C`, the cell number change amounted to 6.08%. In addition, the half-maximal activity concentration (AC50) under setting [2] is 1.46 µM [rising, full curve].
In the case of `Cc1ccc(OCc2nn3c(-c4n[nH]c5c4CCC5)nnc3s2)cc1`, the cell number change is 18.1%. Moreover, the AC50 under setting [2] is 32.6 µM [rising, partial curve].
Take `CC(=O)N1CCN(S(=O)(=O)c2cccc(C(=O)NC3CCCC3)c2)CC1`: the cell number change was determined as 3.19%. The AC50 under setting [2] was 29.1 µM [rising, single point].
Consider `Cc1ccc(C(=O)Nc2ccccc2OC(F)F)cc1`, for which the AC50 runs as follows: under setting [1], 1.3 µM [falling, full curve, poor fit]; under setting [2], 0.13 µM [falling, full curve, poor fit].
For `COc1ccccc1OCc1nc(C#N)c(N2CCC(C(N)=O)CC2)o1`, the cell number change was 21.8%.
`N#Cc1c2c(c(NCc3ccco3)n3c1nc1ccccc13)CCC2`: the cell number change was -0.349%. Under setting [2], the half-maximal activity concentration (AC50) was 0.116 µM [rising, partial curve, poor fit].
